The record followed here is article PMC4124019.

Where two headings read alike, the source gives them in different places. No constants are given. Whether binding was seen depends on the method and setting. In cells and extracts the contact can be indirect. Some entries that bind do so weakly or less than the wild type. Sequences can lack the tags named with a protein.

Assay [1] concerns the target T1, TNFR-associated death domain (TRADD), HA-tagged (UniProt Q3U0V2).
T1 sequence: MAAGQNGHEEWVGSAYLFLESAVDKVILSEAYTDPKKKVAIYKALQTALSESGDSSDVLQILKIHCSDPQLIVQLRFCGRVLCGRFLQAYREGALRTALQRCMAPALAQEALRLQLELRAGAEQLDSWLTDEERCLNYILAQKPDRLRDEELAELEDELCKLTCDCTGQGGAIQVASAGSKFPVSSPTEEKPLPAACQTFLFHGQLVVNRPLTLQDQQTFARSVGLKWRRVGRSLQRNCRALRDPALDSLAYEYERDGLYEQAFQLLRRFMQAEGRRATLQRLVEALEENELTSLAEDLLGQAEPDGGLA
Briefly: co-IP; HEK293T transfected for 18 hrs with TRADD and TRAF6 vectors only (no MAL); lysate in IP buffer; precipitated with anti-HA (TRADD) or anti-TRAF6, Western blot.

Assay [2] concerns the target T1, TNFR-associated death domain (TRADD), HA-tagged. The assay is described as above. This is another data set of the same source.

B1: TNF receptor-associated factor 6 (TRAF6), transfected (Fig. 7A-C) (protein, UniProt P70196 1-530)
chain: MSLLNCENSCGSSQSSSDCCAAMAASCSAAVKDDSVSGSASTGNLSSSFMEEIQGYDVEFDPPLESKYECPICLMALREAVQTPCGHRFCKACIIKSIRDAGHKCPVDNEILLENQLFPDNFAKREILSLTVKCPNKGCLQKMELRHLEDHQVHCEFALVNCPQCQRPFQKCQVNTHIIEDCPRRQVSCVNCAVSMAYEEKEIHDQSCPLANIICEYCGTILIREQMPNHYDLDCPTAPIPCTFSVFGCHEKMQRNHLARHLQENTQLHMRLLAQAVHNVNLALRPCDAASPSRGCRPEDPNYEETIKQLESRLVRQDHQIRELTAKMETQSMYVGELKRTIRTLEDKVAEMEAQQCNGIYIWKIGNFGMHLKSQEEERPVVIHSPGFYTGRPGYKLCMRLHLQLPTAQRCANYISLFVHTMQGEYDSHLPWPFQGTIRLTILDQSEALIRQNHEEVMDAKPELLAFQRPTIPRNPKGFGYVTFMHLEALRQGTFIKDDTLLVRCEVSTRFDMGGLRKEGFQPRSTDAGV
Take B1: the results for the binding result in assay [1] and in assay [2] were “binds weakly” and “no binding (condition: without co-expressed MAL)”, respectively.
